{
  "source": "patent US10590166B2",
  "about": "(Allegro Pharmaceuticals, LLC, priority 2009, dated 2020)",
  "assay": "general procedure: Fmoc solid-phase peptide synthesis; o-chlorotrityl resin; PyBOP/DIEA",
  "settings": "whole synthesis, UV@220 nm, area/area, scale of the general procedure 0.08 mmol",
  "data": [
    {"substance": "Cyclo-RG CYSTEIC ACIDysteic Acid fN(CH3)V", "values": [
      {"measurement": "final HPLC purity", "value": ">99", "unit": "%"}
    ]}
  ]
}
